# Reference: the supplement of paper PMC8728848
# The other results are listed elsewhere or left out.
# B1: PX14343E-bfa-545-24-545 (Bacteroides fragilis) (protein)
# chain: LDRYPQEELSDGSFWKTPDDANKVVSDLYGYLSTWDQDNDINSDNATMGIKWAAGNVSKGIYDPADQGWSGDYANVRQCNLILSKIDEIPDYPEADKTKALGQVYFFRAYIYFNLIRSFGDVPYIDKPLDLKDMEGITRMPRAEVYEKIMADFDKAIAALPTEWGASDYGRVTKGAAMAMKARAALYYGNWDTAATEAKNVMDLGLYELYDKDNTGKYAELFWEKADGCDEFILVTQFNYPDKTHYLMGWECFPTKGWGGMNPTQSLVDAFEDSEGAPISKSKIYDPTDPFKNRDPRLEVDILHDGEEMYGVTIKVAPLASSGSTGINQHNDATETGYYGQKWLDPSLDPLSDGWNMGKDWVHIRYAEVLLTYAEAKNELQGLDPEAFDAVNQVRRRVGMPELQNTDPSKPTYCATQDDLRQRIRNEWRVEFCLEGGKRMWDIRRWGIAKDVLNAPFEGLKYKIVDNPNDPDKKVDGGKMCILYQGDPIILSGSRYSDNNYLFPVPQSEIDLNPALTQNPGY
# How the values were obtained:
# Experiment in all cases: glycan array binding signal (z-score within array); higher = stronger binding
# Settings in all cases: glycan notation: IUPAC condensed, linker removed
# [1] = target: Gal(b1-3)GlcNAc(b1-3)Gal(b1-4)GlcNAc(b1-2)[Gal(b1-3)GlcNAc(b1-3)Gal(b1-4)GlcNAc(b1-6)]Man(a1-6)[Gal(b1-3)GlcNAc(b1-3)Gal(b1-4)GlcNAc(b1-2)Man(a1-3)]Man(b1-4)GlcNAc(b1-4)[Fuc(a1-6)]GlcNAc
# How it was run: (§1)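 Glycan array binding is given as a within-array Z-score, which can be read as non-binding when negative. The arrays, 3228 of them, came from the Consortium for Functional Glycomics database and were retained only where the protein sequence was available. Z-scores were averaged across arrays of the same protein sequence at different concentrations or buffers and across linkers.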
# [2] = target: Gal(b1-3)GlcNAc(b1-3)Gal(b1-4)GlcNAc(b1-3)Gal(b1-4)GlcNAc(b1-2)[Gal(b1-3)GlcNAc(b1-3)Gal(b1-4)GlcNAc(b1-3)Gal(b1-4)GlcNAc(b1-6)]Man(a1-6)[Gal(b1-3)GlcNAc(b1-3)Gal(b1-4)GlcNAc(b1-3)Gal(b1-4)GlcNAc(b1-2)Man(a1-3)]Man(b1-4)GlcNAc(b1-4)[Fuc(a1-6)]GlcNAc
# How it was run: as §1
# [3] = target: Gal(b1-3)GlcNAc(b1-3)Gal(b1-4)GlcNAc(b1-6)[Gal(b1-3)GlcNAc(b1-3)]Gal(b1-4)Glc
# How it was run: as §1
# [4] = target: Gal(b1-3)GlcNAc(b1-3)Gal(b1-4)[Fuc(a1-3)]GlcNAc
# How it was run: as §1
# [5] = target: Gal(b1-3)GlcNAc(b1-3)Gal(b1-4)[Fuc(a1-3)]GlcNAc(b1-6)[Gal(b1-3)GlcNAc(b1-3)]Gal(b1-4)Glc
# How it was run: as §1
# [6] = target: Gal(b1-3)GlcNAc(b1-3)GalNAc
# How it was run: as §1
# [7] = target: Gal(b1-3)GlcNAc(b1-6)Gal(b1-4)GlcNAc
# How it was run: as §1
# [8] = target: Gal(b1-3)GlcNAc(b1-6)GalNAc
# How it was run: as §1
# [9] = target: Gal(b1-3)GlcNAc(b1-6)[Gal(b1-3)]GalNAc
# How it was run: as §1
# Gal(b1-3)GlcNAc6S = target: Gal(b1-3)GlcNAc6S
# How it was run: as §1
# [10] = target: Gal(b1-3)[Fuc(a1-4)]GlcNAc
# How it was run: as §1
# [11] = target: Gal(b1-3)[Fuc(a1-4)]GlcNAc(b1-2)Man
# How it was run: as §1
# [12] = target: Gal(b1-3)[Fuc(a1-4)]GlcNAc(b1-2)Man(a1-3)[Gal(b1-3)[Fuc(a1-4)]GlcNAc(b1-2)Man(a1-6)]Man(b1-4)GlcNAc(b1-4)[Fuc(a1-6)]GlcNAc
# How it was run: as §1
# [13] = target: Gal(b1-3)[Fuc(a1-4)]GlcNAc(b1-3)Gal(b1-3)[Fuc(a1-4)]GlcNAc
# How it was run: as §1
# [14] = target: Gal(b1-3)[Fuc(a1-4)]GlcNAc(b1-3)Gal(b1-4)[Fuc(a1-3)]GlcNAc
# How it was run: as §1
# [15] = target: Gal(b1-3)[Fuc(a1-4)]GlcNAc(b1-6)GalNAc
# How it was run: as §1
# [16] = target: Gal(b1-3)[GlcNAc(b1-6)]GalNAc
# How it was run: as §1
# [17] = target: Gal(b1-3)[Neu5Ac(a2-6)]GalNAc
# How it was run: as §1
# [18] = target: Gal(b1-3)[Neu5Ac(a2-6)]GlcNAc(b1-4)Gal(b1-4)Glc
# How it was run: as §1
# [19] = target: Gal(b1-3)[Neu5Ac(b2-6)]GalNAc
# How it was run: as §1
# Gal(b1-4)Gal = target: Gal(b1-4)Gal
# How it was run: as §1
# [20] = target: Gal(b1-4)GalNAc(a1-3)[Fuc(a1-2)]Gal(b1-4)GlcNAc
# How it was run: as §1
# [21] = target: Gal(b1-4)GalNAc(b1-3)[Fuc(a1-2)]Gal(b1-4)GlcNAc
# How it was run: as §1
# Gal(b1-4)Glc = target: Gal(b1-4)Glc
# How it was run: as §1
# Gal(b1-4)Glc6S = target: Gal(b1-4)Glc6S
# How it was run: as §1
# Gal(b1-4)GlcNAc = target: Gal(b1-4)GlcNAc
# How it was run: as §1
# [22] = target: Gal(b1-4)GlcNAc(a1-6)Gal(b1-4)GlcNAc
# How it was run: as §1
# Gal(b1-4)GlcNAc(b1-2)Man = target: Gal(b1-4)GlcNAc(b1-2)Man
# How it was run: as §1
# [23] = target: Gal(b1-4)GlcNAc(b1-2)Man(a1-3)Man(b1-4)GlcNAc(b1-4)GlcNAc
# How it was run: as §1
# [24] = target: Gal(b1-4)GlcNAc(b1-2)Man(a1-3)[Gal(b1-4)GlcNAc(b1-2)Man(a1-6)]Man(b1-4)GlcNAc(b1-4)GlcNAc
# How it was run: as §1
# [25] = target: Gal(b1-4)GlcNAc(b1-2)Man(a1-3)[Gal(b1-4)GlcNAc(b1-2)Man(a1-6)]Man(b1-4)GlcNAc(b1-4)[Fuc(a1-6)]GlcNAc
# How it was run: as §1
# [26] = target: Gal(b1-4)GlcNAc(b1-2)Man(a1-3)[Gal(b1-4)GlcNAc(b1-2)Man(a1-6)][Gal(b1-4)GlcNAc(b1-4)]Man(b1-4)GlcNAc(b1-4)[Fuc(a1-6)]GlcNAc
# How it was run: as §1
# [27] = target: Gal(b1-4)GlcNAc(b1-2)Man(a1-3)[Gal(b1-4)GlcNAc(b1-2)Man(a1-6)][GlcNAc(b1-4)]Man(b1-4)GlcNAc(b1-4)[Fuc(a1-6)]GlcNAc
# How it was run: as §1
# [28] = target: Gal(b1-4)GlcNAc(b1-2)Man(a1-3)[GlcNAc(b1-2)Man(a1-6)]Man(b1-4)GlcNAc(b1-4)GlcNAc
# How it was run: as §1
# [29] = target: Gal(b1-4)GlcNAc(b1-2)Man(a1-3)[GlcNAc(b1-4)][Gal(b1-4)GlcNAc(b1-2)Man(a1-6)]Man(b1-4)GlcNAc(b1-4)GlcNAc
# How it was run: as §1
# [30] = target: Gal(b1-4)GlcNAc(b1-2)Man(a1-3)[Man(a1-6)]Man(b1-4)GlcNAc(b1-4)GlcNAc
# How it was run: as §1
# [31] = target: Gal(b1-4)GlcNAc(b1-2)Man(a1-6)Man(b1-4)GlcNAc(b1-4)GlcNAc
# How it was run: as §1
# [32] = target: Gal(b1-4)GlcNAc(b1-2)Man(a1-6)[GlcNAc(b1-2)Man(a1-3)]Man(b1-4)GlcNAc(b1-4)GlcNAc
# How it was run: as §1
binder,measurement,setting,value
B1,glycan array binding signal (z-score),[1],0.173
same,glycan array binding signal (z-score),[2],1.06
same,glycan array binding signal (z-score),[3],0.375
same,glycan array binding signal (z-score),[4],-0.765
same,glycan array binding signal (z-score),[5],-0.321
same,glycan array binding signal (z-score),[6],-0.329
same,glycan array binding signal (z-score),[7],-0.703
same,glycan array binding signal (z-score),[8],-0.494
same,glycan array binding signal (z-score),[9],-0.103
same,glycan array binding signal (z-score),Gal(b1-3)GlcNAc6S,0.62
same,glycan array binding signal (z-score),[10],-0.381
same,glycan array binding signal (z-score),[11],-0.724
same,glycan array binding signal (z-score),[12],0.958
same,glycan array binding signal (z-score),[13],-0.886
same,glycan array binding signal (z-score),[14],-0.34
same,glycan array binding signal (z-score),[15],0.38
same,glycan array binding signal (z-score),[16],-0.59
same,glycan array binding signal (z-score),[17],-1.01
same,glycan array binding signal (z-score),[18],-0.838
same,glycan array binding signal (z-score),[19],-0.061
same,glycan array binding signal (z-score),Gal(b1-4)Gal,-0.239
same,glycan array binding signal (z-score),[20],-0.754
same,glycan array binding signal (z-score),[21],-0.995
same,glycan array binding signal (z-score),Gal(b1-4)Glc,-0.472
same,glycan array binding signal (z-score),Gal(b1-4)Glc6S,0.534
same,glycan array binding signal (z-score),Gal(b1-4)GlcNAc,-0.277
same,glycan array binding signal (z-score),[22],-0.402
same,glycan array binding signal (z-score),Gal(b1-4)GlcNAc(b1-2)Man,-0.238
same,glycan array binding signal (z-score),[23],0.631
same,glycan array binding signal (z-score),[24],-0.321
same,glycan array binding signal (z-score),[25],0.236
same,glycan array binding signal (z-score),[26],-0.524
same,glycan array binding signal (z-score),[27],-1.04
same,glycan array binding signal (z-score),[28],-0.179
same,glycan array binding signal (z-score),[29],-0.633
same,glycan array binding signal (z-score),[30],0.062
same,glycan array binding signal (z-score),[31],-0.785
same,glycan array binding signal (z-score),[32],-0.624

# Three entries from above, set out differently.
binder	measurement	setting	value
B1	glycan array binding signal (z-score)	[7]	-0.703
same	glycan array binding signal (z-score)	Gal(b1-4)GlcNAc(b1-2)Man	-0.238
same	glycan array binding signal (z-score)	[27]	-1.04
